Binding data for one substance are collected here from article PMC6347194, “Protein refolding based on high hydrostatic pressure and alkaline pH: Application on a recombinant dengue virus NS1 protein” (PLoS ONE, 2019).

These are yes or no findings as the source states them, for the method shown.

This assay concerns the target dengue virus (DENV) non-structural protein 1 (NS1), recombinant, refolded from inclusion bodies (dengue virus (DENV)) (UniProt P14340). Briefly: condition: only after solubilization at HHP and pH 12.0; SEC; Superdex 200 10/300, elution in 50 mM CAPS pH 11.0; supernatant of NS1-IBs subjected to 2.4 kbar/0.4 kbar at pH 12.0, before dialysis; both purified.

Regarding “dengue virus (DENV) non-structural protein 1 (NS1), recombinant, refolded from inclusion bodies (from UniProt P14340)”, the binding entry was “no binding”.
